These are yes or no findings as the source states them, for the method shown. In cells and extracts the contact can be indirect. Some results given as binding are weak or reduced against the parent protein; the word gives no strength.
Target: endogenous 53BP1 (p53 binding protein 1) (human (endogenous in 293T)) (UniProt Q12888)
Test: co-IP; chromatin-enriched fraction (P3) of transfected 293T cells, extracted with NETN, immunoprecipitation and immunoblotting; mock or bleomycin (10 μg/ml); in some panels siLSD1 and re-expression of HA-LSD1 or its mutants

The chains behind the UniProt entries cited, without tags or fusion partners.
UniProt Q12888: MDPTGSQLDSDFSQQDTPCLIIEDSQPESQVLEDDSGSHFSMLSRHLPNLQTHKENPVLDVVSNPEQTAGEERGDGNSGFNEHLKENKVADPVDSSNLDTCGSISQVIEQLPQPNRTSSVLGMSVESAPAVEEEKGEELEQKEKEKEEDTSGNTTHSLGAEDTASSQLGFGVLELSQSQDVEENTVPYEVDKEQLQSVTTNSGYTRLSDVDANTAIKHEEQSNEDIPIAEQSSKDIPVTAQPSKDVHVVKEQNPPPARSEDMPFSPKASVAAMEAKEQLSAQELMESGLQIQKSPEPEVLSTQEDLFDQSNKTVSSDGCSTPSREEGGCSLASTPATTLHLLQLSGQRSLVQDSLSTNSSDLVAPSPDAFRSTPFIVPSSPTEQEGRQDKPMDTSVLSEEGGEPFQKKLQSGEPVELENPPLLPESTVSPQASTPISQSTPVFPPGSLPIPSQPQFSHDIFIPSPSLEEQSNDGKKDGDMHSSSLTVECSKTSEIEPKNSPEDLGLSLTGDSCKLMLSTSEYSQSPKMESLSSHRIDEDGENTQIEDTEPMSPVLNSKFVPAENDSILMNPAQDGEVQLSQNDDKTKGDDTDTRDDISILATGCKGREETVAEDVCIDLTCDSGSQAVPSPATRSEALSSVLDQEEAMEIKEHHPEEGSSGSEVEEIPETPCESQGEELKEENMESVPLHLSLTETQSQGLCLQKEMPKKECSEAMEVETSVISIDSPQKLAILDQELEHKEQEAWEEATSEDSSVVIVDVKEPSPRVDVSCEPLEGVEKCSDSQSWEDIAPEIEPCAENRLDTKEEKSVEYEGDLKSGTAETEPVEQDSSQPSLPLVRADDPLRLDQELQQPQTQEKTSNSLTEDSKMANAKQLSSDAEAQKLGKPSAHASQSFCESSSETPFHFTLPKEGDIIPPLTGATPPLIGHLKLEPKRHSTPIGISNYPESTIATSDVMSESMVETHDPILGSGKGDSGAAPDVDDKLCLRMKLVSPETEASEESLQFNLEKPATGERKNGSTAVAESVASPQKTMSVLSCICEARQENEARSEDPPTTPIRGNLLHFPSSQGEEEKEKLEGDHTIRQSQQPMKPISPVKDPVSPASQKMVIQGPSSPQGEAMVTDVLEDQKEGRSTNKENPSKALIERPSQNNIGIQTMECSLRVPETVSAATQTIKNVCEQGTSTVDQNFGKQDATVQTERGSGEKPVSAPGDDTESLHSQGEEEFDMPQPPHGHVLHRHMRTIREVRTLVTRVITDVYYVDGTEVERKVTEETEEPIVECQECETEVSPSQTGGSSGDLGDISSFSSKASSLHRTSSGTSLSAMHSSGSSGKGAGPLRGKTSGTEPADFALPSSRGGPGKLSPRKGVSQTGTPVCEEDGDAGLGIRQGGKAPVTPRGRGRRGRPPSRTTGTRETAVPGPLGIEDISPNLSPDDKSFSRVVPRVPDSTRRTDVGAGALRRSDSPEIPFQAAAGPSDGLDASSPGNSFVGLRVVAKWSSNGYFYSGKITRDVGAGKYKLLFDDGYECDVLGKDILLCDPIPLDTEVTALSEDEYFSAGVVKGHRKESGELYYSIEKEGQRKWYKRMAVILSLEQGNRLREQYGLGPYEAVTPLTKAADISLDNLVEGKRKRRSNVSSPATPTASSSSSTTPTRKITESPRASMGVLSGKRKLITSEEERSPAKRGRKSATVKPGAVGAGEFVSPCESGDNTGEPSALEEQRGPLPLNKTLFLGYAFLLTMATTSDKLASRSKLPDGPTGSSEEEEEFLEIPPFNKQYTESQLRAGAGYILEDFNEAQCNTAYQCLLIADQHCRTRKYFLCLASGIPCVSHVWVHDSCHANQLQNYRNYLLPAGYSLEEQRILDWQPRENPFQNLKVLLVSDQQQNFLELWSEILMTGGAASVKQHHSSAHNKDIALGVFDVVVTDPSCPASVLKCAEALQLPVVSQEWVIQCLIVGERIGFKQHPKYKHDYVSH
UniProt Q8IYW5: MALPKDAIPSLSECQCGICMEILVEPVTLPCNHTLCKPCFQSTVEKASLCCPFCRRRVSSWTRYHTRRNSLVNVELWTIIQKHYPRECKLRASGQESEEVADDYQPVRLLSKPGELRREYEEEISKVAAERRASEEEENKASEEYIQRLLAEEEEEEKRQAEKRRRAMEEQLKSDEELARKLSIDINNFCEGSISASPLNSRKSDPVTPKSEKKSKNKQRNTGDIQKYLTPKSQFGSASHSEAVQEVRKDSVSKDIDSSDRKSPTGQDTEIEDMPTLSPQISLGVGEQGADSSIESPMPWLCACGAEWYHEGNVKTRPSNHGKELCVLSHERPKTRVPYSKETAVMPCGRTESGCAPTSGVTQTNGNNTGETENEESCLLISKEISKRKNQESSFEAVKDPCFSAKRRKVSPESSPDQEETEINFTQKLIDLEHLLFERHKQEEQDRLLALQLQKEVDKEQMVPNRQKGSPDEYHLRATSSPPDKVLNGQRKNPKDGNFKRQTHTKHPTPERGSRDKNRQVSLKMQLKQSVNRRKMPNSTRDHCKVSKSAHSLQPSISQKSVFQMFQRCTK

For FLAG-RNF168 (from UniProt Q8IYW5 1-571), the binding was “binds”.

— article PMC4499147
